11 molecules from PMC4075472 can be followed below.

In this experiment the target is T1, CASK-β, full-length wild type, tagged with a C-terminal YFP (Drosophila) (UniProt Q24210).
T1 sequence: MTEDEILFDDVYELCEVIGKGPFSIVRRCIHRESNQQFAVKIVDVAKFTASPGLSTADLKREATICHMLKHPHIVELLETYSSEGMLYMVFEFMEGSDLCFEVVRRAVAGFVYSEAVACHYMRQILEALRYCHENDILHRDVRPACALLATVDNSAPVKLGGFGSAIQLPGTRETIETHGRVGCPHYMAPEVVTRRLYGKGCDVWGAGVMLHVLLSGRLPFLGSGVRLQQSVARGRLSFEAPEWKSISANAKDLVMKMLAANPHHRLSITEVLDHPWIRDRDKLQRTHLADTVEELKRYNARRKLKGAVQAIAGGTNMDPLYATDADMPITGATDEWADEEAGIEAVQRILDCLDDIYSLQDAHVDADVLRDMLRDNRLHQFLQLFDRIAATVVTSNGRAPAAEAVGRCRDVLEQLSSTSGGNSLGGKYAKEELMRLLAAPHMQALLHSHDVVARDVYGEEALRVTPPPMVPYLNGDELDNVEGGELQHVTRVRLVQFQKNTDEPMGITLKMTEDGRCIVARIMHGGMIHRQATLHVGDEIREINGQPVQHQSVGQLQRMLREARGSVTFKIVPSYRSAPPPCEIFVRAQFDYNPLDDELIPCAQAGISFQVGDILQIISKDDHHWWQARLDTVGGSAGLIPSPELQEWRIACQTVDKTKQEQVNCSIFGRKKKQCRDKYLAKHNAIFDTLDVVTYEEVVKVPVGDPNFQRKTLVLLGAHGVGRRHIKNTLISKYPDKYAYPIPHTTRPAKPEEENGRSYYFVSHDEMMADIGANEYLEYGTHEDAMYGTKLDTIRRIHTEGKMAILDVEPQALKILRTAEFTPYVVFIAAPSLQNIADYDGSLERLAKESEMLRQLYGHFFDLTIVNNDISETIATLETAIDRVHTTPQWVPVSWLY
The experiment in a line: affinity purification with mass spectrometry; as a1, but CASK-YFP (full length, ΔL27 or ΔCaMK) expressed with TH-GAL4 (dopaminergic neurons); decreased: peptide ratio mutant/full length <= 0.5.

Results are given in words; binding and its absence hold for the method and conditions named. Binding seen in cells or lysates may run through a third protein. A yes stands for co-enrichment or nearness to the bait. Other partners may have been found. Where a sequence is shown, tags or fusion partners need not be part of it.

B1: SOD2 (enzyme, UniProt Q00637 18-217)
chain: KHTLPKLPYDYAALEPIICREIMELHHQKHHQTYVNNLNAAEEQLEEAKSKSDTTKLIQLAPALRFNGGGHINHTIFWQNLSPNKTQPSDDLKKAIESQWKSLEEFKKELTTLTVAVQGSGWGWLGFNKKSGKLQLAALPNQDPLEASTGLIPLFGIDVWEHAYYLQYKNVRPSYVEAIWDIANWDDISCRFQEAKKLGC
Take B1: the binding result is recorded as “binds”.

B2: INOS (enzyme, UniProt O97477 1-565)
chain: MKPTNNSTLEVISPKVQVDDEFITTDYDYQTSHVKRTADGQLQVHPQTTSLKIRTGRHVPKLGVMLVGWGGNNGSTLTAALEANRRQLKWRKRTGVQEANWYGSITQASTVFIGSDEDGGDVYVPMKELLPMVEPDNIIVDGWDISGLHLGDAMRRAEVLDVALQDQIYDQLAQLRPRPSIYDPDFIAANQSDRADNVIRGTRLEQYEQIRKDIRDFRERSGVDSVIVLWTANTERFADVQPGLNTTSQELIASLEANHSEVSPSTIFAMASIAEGCTYINGSPQNTFVPGLIQLAEEKNVFIAGDDFKSGQTKIKSVLVDFLVGAGIKPVSIASYNHLGNNDGKNLSAPQQFRSKEISKSNVVDDMVASNRLLYGPDEHPDHVVVIKYVPYVGDSKRAMDEYTSEIMMGGHNTLVIHNTCEDSLLATPLILDLVILGELSTRIQLRNAEKESAPWVPFKPVLSLLSYLCKAPLVPQGSQVVNSLFRQRAAIENILRGCIGLPPISHMTLEQRFDFSTITNEPPLKRVKILGQPCSVESVTNGKKLHANGHSNGSAKLATNGNGH
On to B2, for which the binding result is “binds”.

B3: Pgk, phosphoglycerokinase (enzyme, UniProt Q01604 1-415)
chain: MAFNKLSIENLDLAGKRVLMRVDFNVPIKEGKITSNQRIVAALDSIKLALSKKAKSVVLMSHLGRPDGNKNIKYTLAPVAAELKTLLGQDVIFLSDCVGSEVEAACKDPAPGSVILLENVRFYVEEEGKGLDASGGKVKADPAKVKEFRASLAKLGDVYVNDAFGTAHRAHSSMMGDGFEQRAAGLLLNKELKYFSQALDKPPNPFLAILGGAKVADKIQLIENLLDKVNEMIIGGGMAFTFLKVLNNMKIGGSLFDEEGSKIVEKLVEKAKKNNVQLHLPVDFVCGDKFAENAAVSEATVEAGIPDGHMGLDVGPKTRELFAAPIARAKLIVWNGPPGVFEFPNFANGTKSIMDGVVAATKNGTVSIIGGGDTASCCAKWNTEALVSHVSTGGGASLELLEGKTLPGVAALTSA
Consider B3, for which the binding result is “binds”.

B4: ADH (enzyme, UniProt P00334 1-256)
chain: MSFTLTNKNVIFVAGLGGIGLDTSKELLKRDLKNLVILDRIENPAAIAELKAINPKVTVTFYPYDVTVPIAETTKLLKTIFAQLKTVDVLINGAGILDDHQIERTIAVNYTGLVNTTTAILDFWDKRKGGPGGIICNIGSVTGFNAIYQVPVYSGTKAAVVNFTSSLAKLAPITGVTAYTVNPGITRTTLVHKFNSWLDVEPQVAEKLLAHPTQPSLACAENFVKAIELNQNGAIWKLDLGTLEAIQWTKHWDSGI
As to B4, the binding result is on record as “binds”.

B5: Pdi, protein disulfide isomerase (enzyme, UniProt P54399 19-496)
chain: AEAEVKVEEGVLVATVDNFKQLIADNEFVLVEFYAPWCGHCKALAPEYAKAAQQLAEKESPIKLAKVDATVEGELAEQYAVRGYPTLKFFRSGSPVEYSGGRQAADIIAWVTKKTGPPAKDLTSVADAEQFLKDNEIAIIGFFKDLESEEAKTFTKVANALDSFVFGVSSNADVIAKYEAKDNGVVLFKPFDDKKSVFEGELNEENLKKFAQVQSLPLIVDFNHESASKIFGGSIKSHLLFFVSREGGHIEKYVDPLKEIAKKYRDDILFVTISSDEEDHTRIFEFFGMNKEEVPTIRLIKLEEDMAKYKPESDDLSAETIEAFLKKFLDGKLKQHLLSQELPEDWDKNPVKVLVSSNFESVALDKSKSVLVEFYAPWCGHCKQLAPIYDQLAEKYKDNEDIVIAKMDSTANELESIKISSFPTIKYFRKEDNKVIDFNLDRTLDDFVKFLDANGEVADSEPVEETEEEEEAPKKDEL
With B5, the binding entry was “binds”.

B6: CG2947, Hsc binding protein (protein, UniProt Q86DS1 1-377)
chain: MAFTMQTGDLKKLKYFIDFALENPTFLNMPQLQFVKDFVEKFGGTVPPGQFNGGSAGGKCPFGGVAGAKANEPANAPEDSEDEKSLSDPESDVELDMEGVIEADSDPAQPMGNYSKKATEEEVEQASELRAQAASAYGQQKFDEAIALYTKAIELSPGNALFHAKRGQAFLKLKKPNACIRDCDVALELNSDLAAGYKFRGRARRLLGDFELAAHDLRQACKLDFDEETDEWLKEVTPNAKKIEQHRLKQERRQAERKIKERQRDQRRARKEQEKHNASSGGSSGEFSGGNPGNGNMSDILGAMSDPEVSAAIQDILSNPGNITKYASNPKIYNLIKKIVPGGDVGAAFGQAGEKAGKPSEPKPKKDSADFVDDGLD
In the case of B6, the binding entry is given as “binds”.

B7: JAFRAC1 (enzyme, UniProt Q9V3P0 1-194)
chain: MPQLQKPAPAFAGTAVVNGVFKDIKLSDYKGKYLVLFFYPLDFTFVCPTEIIAFSESAAEFRKINCEVIGCSTDSQFTHLAWINTPRKQGGLGSMDIPLLADKSMKVARDYGVLDEETGIPFRGLFIIDDKQNLRQITVNDLPVGRSVEETLRLVQAFQYTDKYGEVCPANWKPGQKTMVADPTKSKEYFETTS
B7: the binding result is reported as “binds”.

B8: PGD (enzyme, UniProt P41572 1-481)
chain: MSGQADIALIGLAVMGQNLILNMDEKGFVVCAYNRTVAKVKEFLANEAKDTKVIGADSLEDMVSKLKSPRKVMLLVKAGSAVDDFIQQLVPLLSAGDVIIDGGNSEYQDTSRRCDELAKLGLLFVGSGVSGGEEGARHGPSLMPGGHEAAWPLIQPIFQAICAKADGEPCCEWVGDGGAGHFVKMVHNGIEYGDMQLICEAYHIMQSLGLSADQMADEFGKWNSAELDSFLIEITRDILKYKDGKGYLLERIRDTAGQKGTGKWTAIAALQYGVPVTLIGEAVFSRCLSALKDERVQASSVLKGPSTKAQVANLTKFLDDIKHALYCAKIVSYAQGFMLMREAARENKWRLNYGGIALMWRGGCIIRSVFLGNIKDAYTSQPELSNLLLDDFFKKAIERGQDSWREVVANAFRWGIPVPALSTALSFYDGYRTAKLPANLLQAQRDYFGAHTYELLGQEGQFHHTNWTGTGGNVSASTYQA
Turning to B8, the binding entry is recorded as “binds”.

B9: prtp, thioredoxin (protein, UniProt Q9VYV3 26-416)
chain: SQEEDTGKQDKQFTVELDPETFDTAIAGGNVFVKFFAPWCGHCKRIQPLWEQLAEIMNVDNPKVIIAKVDCTKHQGLCATHQVTGYPTLRLFKLGEEESVKFKGTRDLPAITDFINKELSAPAEADLGEVKREQVENLNIGKVVDLTEDTFAKHVSTGNHFVKFFAPWCSHCQRLAPTWEDLAKELIKEPTVTISKIDCTQFRSICQDFEVKGYPTLLWIEDGKKIEKYSGARDLSTLKTYVEKMVGVPLEKTAGEAGDEKVVIEEVAGEEDAAKKLTPQQLTGEDEFDQAIAEGVAFIKFYAPWCGHCQKLQPTWEQLATETHQAQSSVKIAKVDCTAPENKQVCIDQQVEGYPTLFLYKNGQRQNEYEGSRSLPELQAYLKKFLGHDEL
Consider B9, for which the binding entry is reported as “binds”.

B10: GlyP, glycogen phosphorylase (enzyme, UniProt Q9XTL9 1-844)
chain: MSKPQSDADRRKQISVRGIAEVGNVTEVKKNFNRHLHYTLVKDRNVSTLRDYYFALANTVKDNMVGRWIRTQQHYYEKDPKRVYYLSLEYYMGRSLTNTMINLGIQSECEEAMYQLGLDIENLEEMEEDAGLGNGGLGRLAACFLDSMATLGLAAYGYGIRYEYGIFAQKIKNGEQVEEPDDWLRYGNPWEKARPEFMLPVNFYGRVIDTPEGKKWVDTQRVFAMPYDNPIPGYNNNHVNTLRLWSAKSPIDFNLKFFNDGDYIQAVLDRNLAENISRVLYPNDNFFEGKELRLKQEYFMCAATLQDIIRRYKASKFGSREAVRNTFDHFPDKVAIQLNDTHPSLAIPELMRILVDEEHLTWEKAWDITVRSCAYTNHTVLPEALERWPVSLLESILPRHLQIIYHINFLHMENVKKKFPDDLDRMRRMSMVEEDGEKRINMAHLSIVGSHAVNGVAAIHSQILKDSLFHDFYEMEPQKFQNKTNGITPRRWLLLCNPGLSDLIAEKIGDEWPVHLDQLVALKKWAKDPNFQRNVARVKQENKLKLAAILEKDYGVKINPSSMFDIQVKRIHEYKRQLLNCLHIITLYNRIKKDPTANFTPRTIMIGGKAAPGYYVAKQIIKLICAVGNVVNNDPIVGDKLKVIFLENYRVTLAEKIMPAADLSEQISTAGTEASGTGNMKFQLNGALTIGTLDGANVEMAEEMGLDNIFIFGMTVDEVEALKKKGYNAYDYYNANPEVKQVIDQIQGGFFSPGNPNEFKNIADILLKYDHYYLLADYDAYIKAQDLVSKTYQNQAKWLEMSINNIASSGKFSSDRTIAEYAREIWGVEPTWEKLPAPEDQPQN
Regarding B10, the binding result was “binds”.

B11: GS2 (enzyme, UniProt P20478 1-369)
chain: MSARILEDSPNARINKTILDRYLSLPLQENIVQATYVWIDGTGEDLRCKDRTLDFIPQSPKELPVWNYDGSSCYQAEGSNSDTYLYPVAIYKDPFRRGNNILVMCDTYKFDGTPTDTNKRKTCLEVANKCAAEEPWFGIEQEYTFLDFDGHPLGWPKNGFPGPQGPYYCGVGANKVYARDIVDAHYRACLYAGIKVSGTNAEVMPAQWEFQVGPCEGISIGDDLWMARFLLHRISEEFGIVSTLDPKPMPGDWNGAGAHTNVSTKAMREDGGIRDIEKAVAKLSKCHERHIRAYDPKQGQDNARRLTGKHETSSINDFSAGVANRGCSIRIPRGVNDDGKGYFEDRRPSSNCDPYSVVEAILRTICLDE
For B11, the binding result is on record as “binds”.
